The values below come from the supplement of paper PMC10735217.

For this assay, the system named is HEK293A TEAD-LUC reporter. Nature of the assay: TEAD-luciferase reporter activity (YAP activation), robust Z score vs plate; higher = stronger YAP/TEAD activation. The conditions noted are these: 24 h. (A reporter such as luciferase makes a cellular process visible.)

Counter-ions that a name gives are not always drawn. This is one part of the list. Repeats in this data set agree poorly, so a single value says little.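 In a drug-repurposing library screen, luminescence reads luciferase driven by eight TEAD-binding elements, stably integrated into human kidney-derived cells. Compounds scoring over five robust Z scores above the plate mean are called hits.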

Regarding `O=C(O)CCC(=O)c1ccc(OCc2ccccc2)cc1`, the TEAD-luciferase reporter activity (compound concentration: 200 nM) is inactive: -1.1, the TEAD-luciferase reporter activity (compound concentration: 2 uM) is inactive: -0.495 and the TEAD-luciferase reporter activity (compound concentration: 10 uM) was inactive: -0.000701.
For `CCOC(=O)C1=C(C)NC(CN(C)CC(C)(C)NCC(O)COc2ccccc2OC)=C(C(=O)OCC)C1c1cccc([N+](=O)[O-])c1` (stereo not given), in that order: inactive: -0.543, inactive: -0.963 and inactive: -0.139.
For `CCCCC(C)(O)C/C=C/[C@H]1[C@H](O)CC(=O)[C@@H]1CCCCCCC(=O)O` (stereo not given in full), in that order: inactive: -1.81, inactive: -1.53 and inactive: 1.97.
In the case of `O=C(O)CN(CC(=O)O)c1ccccc1OCCOc1ccccc1N(CC(=O)O)CC(=O)O` [DP-b99 metabolite], the TEAD-luciferase reporter activity by setting is: (compound concentration: 200 nM) inactive: 0.654; (compound concentration: 10 uM) active: 8.93.
Turning to `O=C(O)CN(CC(=O)O)c1ccccc1OCCOc1ccccc1N(CC(=O)O)CC(=O)O` [BAPTA (DP-b99 metabolite)], the TEAD-luciferase reporter activity (compound concentration: 2 uM) is inactive: 0.999.
Turning to `CCn1cc(C(=O)O)c(=O)c2cnc(N3CCNCC3)nc21`, the TEAD-luciferase reporter activity reads like this: (compound concentration: 200 nM) inactive: -0.0821; (compound concentration: 10 uM) inactive: 0.934.
`CCn1cc(C(=O)O)c(=O)c2cnc(N3CCNCC3)nc21` [pipemidic acid]: for the setting “compound concentration: 2 uM”, the TEAD-luciferase reporter activity was inactive: 0.987.
Consider `COC(=O)C1=C(C)NC(C)=C(c2nc(CN(C)Cc3ccccc3)no2)C1c1cccc([N+](=O)[O-])c1` (stereo not given), for which the TEAD-luciferase reporter activity was inactive: -1.75 (compound concentration: 200 nM), inactive: -0.446 (compound concentration: 2 uM) and inactive: -1.21 (compound concentration: 10 uM).
In the case of `C[C@]12CCC(=O)C=C1CC[C@@H]1[C@@H]2CC[C@@]2(C)[C@H]1CC[C@]2(O)C(=O)COP(=O)([O-])[O-]`, the TEAD-luciferase reporter activity reads like this: (compound concentration: 200 nM) inactive: -0.451; (compound concentration: 10 uM) inactive: 1.29.
Taken in the same sequence, the figures for `O=C1NCc2ccccc2CC12CCCCN2CC1CCCC1` (stereo not given) were inactive: -1.55 and inactive: 4.08.
Taken in the same sequence, the figures for `COc1cccc(-c2ccc(C(=O)NCCNC(=O)c3ccccn3)cc2)c1` were inactive: 3.24 and inactive: 0.76.
For the compound `CC1=C(C(=O)O)N2C(=O)C(NC(=O)C(N)c3ccc(O)cc3)C2SC1` (stereo not given) [cefadroxil], the TEAD-luciferase reporter activity reads like this: (compound concentration: 200 nM) inactive: -1.34; (compound concentration: 2 uM) inactive: 0.949; (compound concentration: 10 uM) inactive: -1.51.
Taken in the same sequence, the figures for `C[C@@H]1C(N)CN1c1nc2c(cc1F)c(=O)c(C(=O)O)cn2C1CC1` (stereo not given in full) were inactive: -0.41, inactive: -0.222 and inactive: -0.0002.
With `COc1cccc(CN2CCC3(CC2)NC(=O)c2ccccc2O3)c1`, the TEAD-luciferase reporter activity is inactive: -0.222 (compound concentration: 200 nM) and inactive: 0.46 (compound concentration: 10 uM).
As for `CC(=O)NCC(=O)N1Cc2ccccc2CC2(CCCN2CC2CCCC2)C1` (stereo not given), the TEAD-luciferase reporter activity is, setting by setting: (compound concentration: 200 nM) inactive: -2.81; (compound concentration: 10 uM) inactive: -0.0219.
As to `COc1ccc2c(c1)c1c3n2CCN(C)C3=NCC1`, the TEAD-luciferase reporter activity by setting is: (compound concentration: 200 nM) inactive: -3.07; (compound concentration: 2 uM) inactive: 1.9; (compound concentration: 10 uM) inactive: 0.991.
Taken in the same sequence, the figures for `NCC1OB(O)c2ccccc21` (stereo not given) were inactive: -0.809, inactive: -0.92 and inactive: 0.872.
For `COc1ccc(Sc2nc(N)nc3c2ncn3CCOCP(=O)(OCC(F)(F)F)OCC(F)(F)F)cc1`, the TEAD-luciferase reporter activity reads like this: (compound concentration: 200 nM) inactive: -0.086; (compound concentration: 2 uM) inactive: -0.836; (compound concentration: 10 uM) inactive: -1.
For `CCOP(=O)(Cc1ccc(C(=O)Nc2ccc(Br)cc2C#N)cc1)OCC` [Ibrolipim], in that order: inactive: -0.792, inactive: -0.189 and inactive: 0.588.
Taken in the same sequence, the figures for `COc1cc(/C=C2\CCC/C(=C\c3ccc(O)c(OC)c3)C2=O)ccc1O` [Cyclovalone] were active: 6.4, inactive: 0.0824 and inactive: 0.667.
Taken in the same sequence, the figures for `O=C(O)CCC(CCCS)C(=O)O` (stereo not given) were inactive: 0.443, inactive: -0.479 and inactive: -1.42.
With `CCCCCCCCCCCCCC(=O)OC(C)C` [Isopropyl myristate], the TEAD-luciferase reporter activity was inactive: -1.85 (compound concentration: 200 nM), inactive: -0.369 (compound concentration: 2 uM) and inactive: -0.985 (compound concentration: 10 uM).
For `C[C@@H]1C/C=C/C=C/C=C/C=C/[C@H](O[C@@H]2O[C@H](C)[C@@H](O)[C@H](N)[C@@H]2O)C[C@@H]2O[C@](O)(C[C@@H](O)C[C@H]3O[C@@H]3/C=C/C(=O)O1)C[C@H](O)[C@H]2C(=O)O` [Natamycin], in that order: inactive: -0.4, inactive: 0.951 and inactive: -0.969.
For `CCN(CC)c1nc(NN)nc(N(CC)CC)n1`, in that order: inactive: 0.232, inactive: 0.227 and inactive: 1.2.
Taken in the same sequence, the figures for `CO/N=C(\C(=O)N[C@@H]1C(=O)N2C(C(=O)OCOC(=O)C(C)(C)C)=C(C)CS[C@H]12)c1csc(N)n1` [Cefetamet pivoxil (hydrochloride)] were inactive: -0.828, inactive: 0.329 and inactive: 1.69.
For the compound `CCC(=O)O[C@]1(C(=O)SCF)[C@H](C)CC2C3C[C@H](F)C4=CC(=O)C=C[C@]4(C)[C@@]3(F)[C@@H](O)C[C@@]21C` (stereo not given in full) [Fluticasone propionate], the TEAD-luciferase reporter activity is, setting by setting: (compound concentration: 200 nM) inactive: 0.524; (compound concentration: 2 uM) inactive: 0.325; (compound concentration: 10 uM) inactive: 2.34.
Taken in the same sequence, the figures for `CC(C)(CCc1ccc(C(N)=O)cc1)NC[C@H](O)c1ccccc1` were inactive: -0.365, inactive: -0.888 and active: 8.19.
Taken in the same sequence, the figures for `C#CCOc1ccc2c(c1)c(-c1ccc(C(C)C)cc1)nc(=O)n2Cc1ccc(Br)cc1` were inactive: 3.49, inactive: 1.91 and inactive: 4.36.
Taken in the same sequence, the figures for `CC1(C)C=C(c2cccc[n+]2[O-])c2cc(Cl)c(Cl)cc2OC1` were inactive: -1.78, inactive: -0.328 and inactive: -0.249.
Turning to `O=C(O)c1ccc([C@@H]2C[C@H]2c2ccc(OCc3c(-c4c(Cl)cccc4Cl)noc3C3CC3)cc2Cl)cc1`, the TEAD-luciferase reporter activity is, setting by setting: (compound concentration: 200 nM) inactive: -0.835; (compound concentration: 10 uM) inactive: -0.179.
`Cc1ccccc1N1CCN(C2CCc3ccccc3C2)CC1` (stereo not given): the TEAD-luciferase reporter activity by setting is: (compound concentration: 200 nM) inactive: -0.578; (compound concentration: 2 uM) inactive: 0.171; (compound concentration: 10 uM) inactive: -0.519.
In the case of `CCCC(=O)NCCCCNC(=O)CCC`, the TEAD-luciferase reporter activity is, setting by setting: (compound concentration: 200 nM) inactive: -0.977; (compound concentration: 2 uM) inactive: -0.813; (compound concentration: 10 uM) inactive: 0.717.
For `CC(=O)NC[C@H]1CN(c2ccc(-c3ncc(C#N)s3)c(F)c2)C(=O)O1`, in that order: inactive: -0.508, inactive: 4.17 and active: 6.17.
Taken in the same sequence, the figures for `CC(C)(CO)NCC(=O)N1C[C@@H](F)C[C@H]1C(=O)c1nnc(C(C)(C)C)o1` were inactive: -1.85, inactive: -0.615 and inactive: -0.366.
In the case of `CC(C(=O)O)c1ccc2c(c1)CC(=O)c1ccccc1S2` (stereo not given) [zaltoprofen], the TEAD-luciferase reporter activity was inactive: -1.38 (compound concentration: 200 nM), inactive: -1.55 (compound concentration: 2 uM) and inactive: 2.07 (compound concentration: 10 uM).
For `O=C1NC2(CCN(CC3CC3)CC2)Oc2ccccc21`, the TEAD-luciferase reporter activity was inactive: -0.622 (compound concentration: 200 nM) and inactive: 3.26 (compound concentration: 10 uM).
